The list is a part of this screen's results and no random one: it is rich in T/C values a quarter to a half above the control, in often repeated tests (any T/C) and in doses without a T/C. Further doses and runs are listed elsewhere. T/C: endpoint of the treated group in % of that of the vehicle group. Some doses have a count of surviving animals in place of a T/C: the source holds a T/C of zero for them, seemingly a mark for toxic or unscored doses. Some survivor counts are full or nearly so, which does not show that the dose was tolerated: survival well below the control is almost never listed, so the zero probably covers shortened survival too. Counts of survivors are from the toxicity check (mostly the fifth day) where no day follows; animals may have died later. Schedules are NCI's codes, read here as Q, the interval in days (D) or hours (H), X, the number of doses. Some entries hold several experiments; the results are listed from low to high. Where survival is the endpoint, this PubChem deposit counts one and a half times the control or more as active, and values a quarter to a half above the control carry no call in these data; other NCI protocols may use other cut-offs. Some T/C values are followed by the survivors on the day toxicity was checked, most often the fifth; without a count, all were alive then.
System: P388 leukemia ip, CD2F1 mice, survival T/C
Assay: NCI In Vivo Anticancer Drug Screen. Data for tumor model P388 Leukemia (intraperitoneal) in CD2F1 (CDF1) mice
Details: T/C endpoint: median survival time, higher T/C = longer survival
[1] = dose: 50.0 mg/kg/injection, schedule: Q01DX009 (ip), vehicle: saline with Tween-80
[2] = dose: 100.0 mg/kg/injection, schedule: Q01DX001 (ip), vehicle: Klucel (hydroxypropylcellulose) (HPC)
[3] = dose: 200.0 mg/kg/injection, schedule: Q01DX001 (ip), vehicle: Klucel (hydroxypropylcellulose) (HPC)
[4] = dose: 400.0 mg/kg/injection, schedule: Q01DX001 (ip), vehicle: Klucel (hydroxypropylcellulose) (HPC)

O=P(c1ccccc1)(c1ccccc1)c1ccccc1.O=P(c1ccccc1)(c1ccccc1)c1ccccc1.O=P(c1ccccc1)(c1ccccc1)c1ccccc1.O=P(c1ccccc1)(c1ccccc1)c1ccccc1.[O-][Cl+3]([O-])([O-])O.[O]=[U+2]=[O]
survivor count (dose: 25.0 mg/kg/injection, schedule: Q01DX009 (ip), vehicle: saline with Tween-80): 4 of 6
survivor count [1]: 1 of 6
survivor count (dose: 100.0 mg/kg/injection, schedule: Q01DX009 (ip), vehicle: saline with Tween-80): 0 of 6
survivor count (dose: 200.0 mg/kg/injection, schedule: Q01DX009 (ip), vehicle: saline with Tween-80): 0 of 6

CCC1(O)CN2CCc3c([nH]c4ccccc34)C(C(=O)OC)(c3cc4c(cc3OC)N(C)C3C(O)(C(=O)OC)C(OC(C)=O)C5(CC)C=CCN6CCC43C65)CC(C2=O)C1O (stereo not drawn)
T/C (dose: 50.0 mg/kg/injection, schedule: Q01DX001 (ip), vehicle: distilled water + Tween-80): 130 % of control
T/C (dose: 100.0 mg/kg/injection, schedule: Q01DX001 (ip), vehicle: distilled water + Tween-80): 144 % of control
T/C (dose: 200.0 mg/kg/injection, schedule: Q01DX001 (ip), vehicle: suspension in saline): 131 % of control
survivor count (dose: 400.0 mg/kg/injection, schedule: Q01DX001 (ip), vehicle: distilled water + Tween-80): 0 of 5
survivor count (dose: 400.0 mg/kg/injection, schedule: Q01DX001 (ip), vehicle: suspension in saline): 0 of 3

O=C1C=C(NCCC2CCCN3CCCCC23)C(=O)c2ccccc21 (stereo not drawn)
survivor count [2]: 0 of 6
survivor count [3]: 0 of 6
survivor count [4]: 0 of 6

COC(=O)Cn1/c(=N\N=C(/C)c2ccc([N+](=O)[O-])cc2)sc2ccccc21
survivor count (dose: 100.0 mg/kg/injection, schedule: Q01DX001 (ip), vehicle: saline with Tween-80): 6 of 6
survivor count (dose: 200.0 mg/kg/injection, schedule: Q01DX001 (ip), vehicle: saline with Tween-80): 6 of 6

CC1(C)N=C(N)N=C(N)N1c1cccc(CCCCc2ccc(Cl)c(S(=O)(=O)F)c2)c1
T/C (dose: 4.0 mg/kg/injection, schedule: Q01DX009 (ip), vehicle: saline): 130 % of control
T/C (dose: 6.0 mg/kg/injection, schedule: Q01DX009 (ip), vehicle: saline): 140 % of control
T/C (dose: 6.22 mg/kg/injection, schedule: Q01DX009 (ip), vehicle: saline): 127 % of control
T/C (dose: 9.0 mg/kg/injection, schedule: Q01DX009 (ip), vehicle: saline): 135 % of control
T/C (dose: 14.0 mg/kg/injection, schedule: Q01DX009 (ip), vehicle: saline): 127 % of control
survivor count (dose: 21.0 mg/kg/injection, schedule: Q01DX009 (ip), vehicle: saline): 5 of 6

CCCCCCCCCCCCCCCC[N+](C)(C)CCSc1ccccc1
T/C (dose: 6.25 mg/kg/injection, schedule: Q01DX009 (ip), vehicle: distilled water + alcohol): 109 [4 of 6 alive], 110, 119, 120 % of control
survivor count (dose: 12.5 mg/kg/injection, schedule: Q01DX009 (ip), vehicle: distilled water + alcohol): 0 of 6 and 5 of 6
survivor count (dose: 25.0 mg/kg/injection, schedule: Q01DX009 (ip), vehicle: distilled water + alcohol): 0 of 6
survivor count (dose: 50.0 mg/kg/injection, schedule: Q01DX009 (ip), vehicle: distilled water + alcohol): 0 of 6
survivor count (dose: 100.0 mg/kg/injection, schedule: Q01DX009 (ip), vehicle: distilled water + alcohol): 0 of 6
survivor count (dose: 200.0 mg/kg/injection, schedule: Q01DX009 (ip), vehicle: distilled water + alcohol): 0 of 6

CC([NH-])C[NH-].[Cl][Pt+2][Cl] (stereo not drawn)
T/C (dose: 6.25 mg/kg/injection, schedule: Q01DX001 (ip), vehicle: Klucel (hydroxypropylcellulose) (HPC)): 137 % of control
survivor count (dose: 25.0 mg/kg/injection, schedule: Q01DX001 (ip), vehicle: Klucel (hydroxypropylcellulose) (HPC)): 0 of 6
survivor count (dose: 50.0 mg/kg/injection, schedule: Q01DX001 (ip), vehicle: Klucel (hydroxypropylcellulose) (HPC)): 0 of 6
survivor count [2]: 0 of 6
survivor count [3]: 0 of 6
survivor count [4]: 0 of 6

[N-]=[N+]=CC(=O)CCC(N)C(=O)O (stereo not drawn)
T/C (dose: 0.03 mg/kg/injection, schedule: Q01DX009 (ip), vehicle: saline): 138 % of control
T/C (dose: 0.08 mg/kg/injection, schedule: Q01DX009 (ip), vehicle: saline): 133 % of control [5 of 6 alive]
T/C (dose: 0.3 mg/kg/injection, schedule: Q01DX005 (ip), vehicle: saline): 136 % of control
T/C (dose: 0.6 mg/kg/injection, schedule: Q01DX005 (iv), vehicle: saline): 136 % of control
survivor count (dose: 0.6 mg/kg/injection, schedule: Q01DX009 (ip), vehicle: saline): 6 of 6
T/C (dose: 1.2 mg/kg/injection, schedule: Q01DX005 (ip), vehicle: saline): 126 % of control
T/C (dose: 1.2 mg/kg/injection, schedule: Q01DX005 (iv), vehicle: saline): 148 % of control
T/C (dose: 31.2 micrograms/kg/injection, schedule: Q01DX009 (ip), vehicle: saline): 139 % of control

CCC1(O)CC2CN(CCc3c([nH]c4ccccc34)C(C(=O)OC)(c3cc4c(cc3OC)N(C)C3C(O)(C(=O)OC)CC5(CC)C=CCN6CCC43C65)C2)C1 (stereo not drawn)
T/C (dose: 2.0 mg/kg/injection, schedule: Q01DX001 (ip), vehicle: saline): 128 and 135 % of control
T/C (dose: 4.0 mg/kg/injection, schedule: Q01DX001 (ip), vehicle: saline): 145 % of control

Nc1nc(N)c2cc(CNc3ccc(C(=O)NC(CC(=O)O)CC(=O)O)cc3)ccc2n1
T/C [1]: 145 % of control
survivor count (dose: 300.0 mg/kg/injection, schedule: Q01DX009 (ip), vehicle: saline with Tween-80): 6 of 6

COc1cc(O)c(O)cc1C(C)(C)C
survivor count (dose: 180.0 mg/kg/injection, schedule: Q01DX005 (ip), vehicle: saline with Tween-80): 6 of 6

Cn1c2ccccc2c(=O)c2c(O)cc3c(c21)C=CC(C)(C)O3
survivor count (dose: 0.38 mg/kg/injection, schedule: Q01DX009 (ip), vehicle: Klucel (hydroxypropylcellulose) (HPC)): 6 of 6
survivor count (dose: 25.0 mg/kg/injection, schedule: Q01DX009 (ip), vehicle: Klucel (hydroxypropylcellulose) (HPC)): 6 of 6
survivor count (dose: 50.0 mg/kg/injection, schedule: Q01DX009 (ip), vehicle: Klucel (hydroxypropylcellulose) (HPC)): 6 of 6
survivor count (dose: 100.0 mg/kg/injection, schedule: Q01DX009 (ip), vehicle: Klucel (hydroxypropylcellulose) (HPC)): 6 of 6

C1=C[N-]c2c3c(ccc2=C1)=CC=C[N-]3.C1=C[N-]c2c3c(ccc2=C1)=CC=C[N-]3.C1C[N-]C2C(C1)CCC1CC[N-]CC12.[Ni]
survivor count (dose: 12.5 mg/kg/injection, schedule: Q01DX005 (ip), vehicle: saline): 0 of 6
survivor count (dose: 50.0 mg/kg/injection, schedule: Q01DX005 (ip), vehicle: saline): 0 of 6
survivor count (dose: 100.0 mg/kg/injection, schedule: Q01DX005 (ip), vehicle: saline): 0 of 6
survivor count (dose: 200.0 mg/kg/injection, schedule: Q01DX005 (ip), vehicle: saline): 0 of 6
